Experimental data taken from US11964974B1, “Imidazo[1,2-c]pyrido[3,4-e]pyrimidine-3-carboxylic acids as CK2 inhibitors” (KING FAISAL UNIVERSITY, priority 2024, dated 2024).

What was measured:
Type in all cases: cell-based
A375 (melanoma) = test: In vitro cytotoxic activity assay (MTT), A375; settings: Homo sapiens, A-375; A375 (melanoma) cells, exposed for 96 hours; read-out: Cytotoxicity activity IC50
Experimental: (§1) Compounds 1-16 were screened for their in vitro cytotoxic activity utilizing a 3-(4,5-dimethyl-thiazol-2-yl)-2,5-diphenyltetrazolium bromide (MTT) assay against selected cancer human cell lines consisting of PC3 (prostate), HCT116 (colon), A375 (melanoma), H1299 (lung), MIAPaCa-2 (pancreas), HL60 (leukemia), MCF7 (breast), MDA-MB-231 (breast) (T. Mosmann, J. Immunol. Meth., 1983, 65, 55-63). The cells were cultured at 37° C. in RMPI1640 medium supplemented with 10% fetal bovine serum, 50 IU/mL penicillin, and 50 μg/mL streptomycin in a 5% CO2 incubator. All cells were sub-cultured 3 times/week by trypsinisation. Viable cells were seeded and allowed to adhere for 12 hours before a test drug was added in 96-well plates at an initial density of 1.0×10^5 cells/mL. Tumor cell lines were separately exposed to various concentrations of the tested compounds followed by incubation at a temperature of 37° C. during 96 hours inside a medium of fresh RMPI 1640. Cells were subsequently incubated at 37° C. using MTT at 0.5 mg/mL during 4 hours. After removal of supernatant, formazan crystals were dissolved in isopropanol and the optical density was measured at 570 nm. CX-4945 was used as a positive control.

MCF7 (breast) = test: In vitro cytotoxic activity assay (MTT), MCF7; settings: Homo sapiens; MCF7 (breast) cells, exposed for 96 hours; read-out: Cytotoxicity activity IC50
Experimental: as §1

H1299 (lung) = test: In vitro cytotoxic activity assay (MTT), H1299; settings: Homo sapiens, NCI-H1299; H1299 (lung) cells, exposed for 96 hours; read-out: Cytotoxicity activity IC50
Experimental: as §1

MDA-MB-231 (breast) = test: In vitro cytotoxic activity assay (MTT), MDA-MB-231; settings: Homo sapiens; MDA-MB-231 (breast) cells, exposed for 96 hours; read-out: Cytotoxicity activity IC50
Experimental: as §1

HCT116 (colon) = test: In vitro cytotoxic activity assay (MTT), HCT116; settings: Homo sapiens, HCT-116; HCT116 (colon) cells, exposed for 96 hours; read-out: Cytotoxicity activity IC50
Experimental: as §1

PC3 (prostate) = test: In vitro cytotoxic activity assay (MTT), PC3; settings: Homo sapiens, Prostate cell; PC3 (prostate) cells, exposed for 96 hours; read-out: Cytotoxicity activity IC50
Experimental: as §1

HL60 (leukemia) = test: In vitro cytotoxic activity assay (MTT), HL60; settings: Homo sapiens, HL-60; HL60 (leukemia) cells, exposed for 96 hours; read-out: Cytotoxicity activity IC50
Experimental: as §1

MIAPaCa-2 (pancreas) = test: In vitro cytotoxic activity assay (MTT), MIAPaCa-2; settings: Homo sapiens, MIA PaCa-2; MIAPaCa-2 (pancreas) cells, exposed for 96 hours; read-out: Cytotoxicity activity IC50
Experimental: as §1

Question: How did the IC50 (A375 (melanoma)) turn out when `O=C(O)c1ccc2c(c1)nc(Nc1cccc(Cl)c1)c1ccncc12` [CX-4945, reference compound] was run?
Answer: Its IC50 is 4100 nM.

Question: What about the IC50 (MCF7 (breast)) of the same molecule?
Answer: The IC50 was 9100 nM.

Question: What about the IC50 (H1299 (lung)) of the same molecule?
Answer: Its IC50 is 2300 nM.

Question: What about the IC50 (MDA-MB-231 (breast)) of the same molecule?
Answer: Its IC50 is 6200 nM.

Question: What about the IC50 (HCT116 (colon)) of the same molecule?
Answer: The IC50 was 2300 nM.

Question: What about the IC50 (PC3 (prostate)) of the same molecule?
Answer: The IC50 was 2000 nM.

Question: What about the IC50 (HL60 (leukemia)) of the same molecule?
Answer: Its IC50 is 3700 nM.

Question: And the IC50 (MIAPaCa-2 (pancreas))?
Answer: The IC50 was 1000 nM.
